Results: PubChem BioAssay AID463183 (Sanford-Burnham Center for Chemical Genomics, 2010)
This is one part of the list. The main result of the screen is listed elsewhere. These columns were measured beside it and carry no call. Compounds called inactive in the main read-out are mostly missing here.

Assay: blockers of oleate-driven lipid droplets in liver cells – imaging, AML12 mouse hepatocytes, single concentration, high-content, confirmation (AID 463183);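 further: cells counted after overnight compound exposure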
Settings: BODIPY lipid droplet imaging, measured here: cell count, cytotoxicity, at 5.2 µM, droplets induced with 100 µM oleic acid

| Structure (SMILES) | cell count |
| --- | --- |
| O=C(CSC1=NC2(CCCCCC2)N=C1c1ccccc1)Nc1ccc2c(c1)OCCO2 | 1690 cells |
| CSc1ccc(NC(=O)N2CCC(C(=O)c3ccc(F)cc3)CC2)cc1 | 1600 cells |
| CCOc1ccc(CCNC(=O)Cn2nc(C)c3c(C)n(-c4ccccc4)nc3c2=O)cc1OCC | 1620 cells |
| CCCCOc1ccc(/C=C/C(=O)OCC(=O)c2c(N)n(C)c(=O)n(C)c2=O)cc1OCC | 1640 cells |
| CC1(C)Oc2ccc3ccc(=O)oc3c2/C(=C/Nc2ccc(O)cc2)C1=O | 1700 cells |
| COc1ccc(Cl)cc1NC(=O)CN(C)C(=O)Cc1ccc2c(c1)CCC2 | 1550 cells |
| CCc1ccccc1NS(=O)(=O)c1cc2c(cc1C)n(C)c(=O)c(=O)n2C | 1580 cells |
| CCOc1cc2c(cc1OCC)C(c1ccccc1OC)OC(=O)C2 (stereo not drawn) | 1600 cells |
| CCCCc1ccc(N=N/C(C(=O)Nc2cc(OC)c(NC(C)=O)cc2OC)=C(/C)O)cc1 | 1600 cells |
| O=C1CN(C(=O)Cn2ncc(Cl)c(Cl)c2=O)c2ccccc2N1 | 1630 cells |
| COc1ccc(N=NC2C(=O)N(c3ccccc3)N=C2C)cc1 (stereo not drawn) | 1560 cells |
| COc1cc(CNC(=O)c2cccc(COc3ccc(Cl)cc3)c2)cc(OC)c1 | 1580 cells |
| O=C(CCC(=O)c1ccc(F)cc1)Nc1cccc(S(=O)(=O)Nc2cccc(Cl)c2)c1 | 1610 cells |
| CS(=O)(=O)N(CC(=O)Nc1ccccc1Br)Cc1ccccc1 | 1670 cells |
| COc1cc(NC(=O)c2cccs2)c(OC)cc1NC(=O)CCC(=O)Nc1ccc2ncccc2c1 | 1560 cells |
| COc1cc2ncnc(NCc3cccs3)c2cc1OC | 940 cells |
| COCCn1cnc2c(c1=O)c1nc3ccccc3nc1n2/N=C/c1ccc(OC)c(OC)c1 | 1540 cells |
| CCNC(=S)N1CCc2cc(OC)c(OC)cc2C1COc1ccc(F)cc1 (stereo not drawn) | 1600 cells |
| Cc1cc(C)n(-c2nc3c(c(=O)[nH]c(=O)n3C)n2CC(O)COc2ccc(Cl)cc2Cl)n1 (stereo not drawn) | 1590 cells |
| CC/C(=N/Nc1ccccc1Cl)c1cnnc(-c2ccccc2)n1 | 1700 cells |
| COc1cccc(CNC(=O)CCNC(=O)C2CCN(S(=O)(=O)c3ccccc3)CC2)c1 | 1630 cells |
| Cc1ccccc1OCc1nnc(SCC(=O)Nc2ccc3c(c2)oc2ccccc23)n1C | 1500 cells |
| CCOc1ccc(CCNC(=O)C(C)n2nc(C)n3c(cc4occc43)c2=O)cc1OCC (stereo not drawn) | 1530 cells |

Another view of two compounds above:
COc1cc2ncnc(NCc3cccs3)c2cc1OC
  cell count: 940 cells
COCCn1cnc2c(c1=O)c1nc3ccccc3nc1n2/N=C/c1ccc(OC)c(OC)c1
  cell count: 1540 cells
